Results taken from patent US20240110220A1, “DETECTING BETA-LACTAMASE ENZYME ACTIVITY” (COMMISSARIAT A L'ENERGIE ATOMIQUE ET AUX ENERGIES …, priority 2021, published 2024).
Further values from the same series stand in other lists.

Test system: bacterial colonies
Test: Validation of the rapid test strip on bacterial colonies sensitive or resistant to third-generation cephalosporins (Table 12)
Assay type: biochemical
Design: key: A signal on the TL is considered as “P”; An absence of signal on the TL is defined as “N”
Procedure: In order to validate the test strip on bacterial colonies for its clinical use, […].
In order to carry out these tests, all of the solutions below have been prepared in the buffer strip having, for composition: 0.1 M pH 8 Tris buffer/HCL+0.15 M NaCl+0.5% Tween 20+1% chaps+0.01% sodium azide. […] The tracer is in dried format on the CP. […] A CL was produced. It consists of anti-tracer antibodies. The migration is carried out in a plastic cassette.
A bacterial colony was sampled from an URI-4 agar with a 1 μl ose, then deposited in the previously prepared Eppendorf tube. The tube was vortexed for five seconds, then incubated for 30 minutes at ambient temperature. Once the incubation was finished, 100 μl was sampled and deposited on the test strip. The reading is carried out after 10 minutes migration. A signal on the TL is considered as “P”. An absence of signal on the TL is defined as “N”.

## CO/N=C(\C(=O)N[C@@H]1C(=O)N2C(C(=O)O)=C(COC(C)=O)CS[C@H]12)c1csc(N)n1 [non-hydrolysed cefotaxime, cefotaxime]
E. coli, KPC-6, isolate number 1, strains capable of hydrolysing cefotaxime
  results of the test: P
E. coli, KPC-7, isolate number 1, strains capable of hydrolysing cefotaxime
  results of the test: P
E. coli, KPC-14, isolate number 1, strains capable of hydrolysing cefotaxime
  results of the test: P
E. coli, KPC-28, isolate number 1, strains capable of hydrolysing cefotaxime
  results of the test: P
E. coli, KPC-31, isolate number 1, strains capable of hydrolysing cefotaxime
  results of the test: P
E. coli, KPC-33, isolate number 1, strains capable of hydrolysing cefotaxime
  results of the test: P
E. coli, MCR-1 + OXA-48 + KPC-28, isolate number 1, strains capable of hydrolysing cefotaxime
  results of the test: P
E. coli, MCR-1, isolate number 1, strains not capable of hydrolysing cefotaxime
  results of the test: N
E. coli, MCR-2, isolate number 1, strains not capable of hydrolysing cefotaxime
  results of the test: N
E. coli, MCR-5, isolate number 1, strains not capable of hydrolysing cefotaxime
  results of the test: N
E. coli, N/A, isolate number 1, strains not capable of hydrolysing cefotaxime
  results of the test: N
E. coli, NDM-1 + MCR-1, isolate number 1, strains capable of hydrolysing cefotaxime
  results of the test: P
E. coli, NDM-1 + VIM-2, isolate number 1, strains capable of hydrolysing cefotaxime
  results of the test: P
E. coli, NDM-7, isolate number 1, strains capable of hydrolysing cefotaxime
  results of the test: P
E. coli, NDM-19, isolate number 1, strains capable of hydrolysing cefotaxime
  results of the test: P
E. coli, OXA-48 + MCR-1, isolate number 2, strains capable of hydrolysing cefotaxime
  results of the test: P
E. coli, OXA-181, isolate number 2, strains capable of hydrolysing cefotaxime
  results of the test: P
E. coli, OXA-244, isolate number 2, strains capable of hydrolysing cefotaxime
  results of the test: P
E. coli, OXA-484, isolate number 1, strains capable of hydrolysing cefotaxime
  results of the test: P
E. coli, Overexpressed AmpC, isolate number 1, strains capable of hydrolysing cefotaxime
  results of the test: P
E. coli, SHV + DHA, isolate number 1, strains capable of hydrolysing cefotaxime
  results of the test: P
E. coli, SHV-2a, isolate number 1, strains capable of hydrolysing cefotaxime
  results of the test: P
E. coli, SHV-12 + IMP-8, isolate number 1, strains capable of hydrolysing cefotaxime
  results of the test: P
E. coli, TEM-1 + KPC-2 + OXA-9, isolate number 1, strains capable of hydrolysing cefotaxime
  results of the test: P
E. coli, TEM-1 + OXA-244, isolate number 1, strains capable of hydrolysing cefotaxime
  results of the test: P
E. coli, TEM-52, isolate number 1, strains capable of hydrolysing cefotaxime
  results of the test: P
H. alvei, Overexpressed AmpC, isolate number 2, strains capable of hydrolysing cefotaxime
  results of the test: P
M. morganii, CTX-M-15, isolate number 1, strains capable of hydrolysing cefotaxime
  results of the test: P
M. morganii, Overexpressed AmpC, isolate number 1, strains capable of hydrolysing cefotaxime
  results of the test: P
P. aeruginosa, AIM-1, isolate number 1, strains not capable of hydrolysing cefotaxime
  results of the test: N
P. aeruginosa, BEL, isolate number 1, strains capable of hydrolysing cefotaxime
  results of the test: P
P. aeruginosa, CARBA-4, isolate number 1, strains not capable of hydrolysing cefotaxime
  results of the test: N
P. aeruginosa, CTX-M-2, isolate number 1, strains capable of hydrolysing cefotaxime
  results of the test: P
P. aeruginosa, GES-2, isolate number 1, strains capable of hydrolysing cefotaxime
  results of the test: P
P. aeruginosa, GES-5, isolate number 1, strains capable of hydrolysing cefotaxime
  results of the test: P
P. aeruginosa, GES-9, isolate number 1, strains capable of hydrolysing cefotaxime
  results of the test: P
P. aeruginosa, GIM-1 + OXA-2 + OXA 395, isolate number 1, strains capable of hydrolysing cefotaxime
  results of the test: P
P. aeruginosa, IMP-1, isolate number 1, strains capable of hydrolysing cefotaxime
  results of the test: P
P. aeruginosa, IMP-2, isolate number 2, strains capable of hydrolysing cefotaxime
  results of the test: P
P. aeruginosa, IMP-7, isolate number 1, strains capable of hydrolysing cefotaxime
  results of the test: P
P. aeruginosa, IMP-13, isolate number 2, strains capable of hydrolysing cefotaxime
  results of the test: P
P. aeruginosa, IMP-15, isolate number 1, strains capable of hydrolysing cefotaxime
  results of the test: P
P. aeruginosa, IMP-19, isolate number 1, strains capable of hydrolysing cefotaxime
  results of the test: P
P. aeruginosa, IMP-26, isolate number 1, strains capable of hydrolysing cefotaxime
  results of the test: P
P. aeruginosa, IMP-29, isolate number 1, strains capable of hydrolysing cefotaxime
  results of the test: P
P. aeruginosa, IMP-31, isolate number 1, strains capable of hydrolysing cefotaxime
  results of the test: P
P. aeruginosa, IMP-39, isolate number 1, strains capable of hydrolysing cefotaxime
  results of the test: P
P. aeruginosa, IMP-56, isolate number 1, strains capable of hydrolysing cefotaxime
  results of the test: P
P. aeruginosa, IMP-63, isolate number 1, strains capable of hydrolysing cefotaxime
  results of the test: P
P. aeruginosa, IMP-71, isolate number 1, strains capable of hydrolysing cefotaxime
  results of the test: P
P. aeruginosa, KPC-2, isolate number 4, strains capable of hydrolysing cefotaxime
  results of the test: P
P. aeruginosa, Mex A/B-OprM, isolate number 1, strains not capable of hydrolysing cefotaxime
  results of the test: N
P. aeruginosa, Mex C/D-OprJ, isolate number 1, strains not capable of hydrolysing cefotaxime
  results of the test: N
P. aeruginosa, N/A, isolate number 2, strains not capable of hydrolysing cefotaxime
  results of the test: N
P. aeruginosa, NDM-1, isolate number 2, strains capable of hydrolysing cefotaxime
  results of the test: P
P. aeruginosa, OXA-32, isolate number 1, strains not capable of hydrolysing cefotaxime
  results of the test: N
P. aeruginosa, OXA-198, isolate number 1, strains not capable of hydrolysing cefotaxime
  results of the test: N
P. aeruginosa, OprD deficient, isolate number 1, strains not capable of hydrolysing cefotaxime
  results of the test: N
P. aeruginosa, Overexpressed AmpC + OprD deficient + MexA/B-OprM + MexC/D-OprJ, isolate number 1, strains capable of hydrolysing cefotaxime
  results of the test: P
P. aeruginosa, Overexpressed AmpC + OprD deficient + MexA/B-OprM + MexX/Y-OprM, isolate number 1, strains capable of hydrolysing cefotaxime
  results of the test: P
P. aeruginosa, Overexpressed AmpC + OprD deficient + MexA/B-OprM, isolate number 1, strains capable of hydrolysing cefotaxime
  results of the test: P
P. aeruginosa, PER-1, isolate number 1, strains capable of hydrolysing cefotaxime
  results of the test: P
P. aeruginosa, PER-2, isolate number 1, strains capable of hydrolysing cefotaxime
  results of the test: P
P. aeruginosa, PME-1, isolate number 1, strains not capable of hydrolysing cefotaxime
  results of the test: N
P. aeruginosa, SHV-2a, isolate number 1, strains capable of hydrolysing cefotaxime
  results of the test: P
P. aeruginosa, SHV-5, isolate number 1, strains capable of hydrolysing cefotaxime
  results of the test: P
P. aeruginosa, SPM-1, isolate number 1, strains capable of hydrolysing cefotaxime
  results of the test: P
P. aeruginosa, TEM-4, isolate number 1, strains capable of hydrolysing cefotaxime
  results of the test: P
P. aeruginosa, VEB-1, isolate number 1, strains capable of hydrolysing cefotaxime
  results of the test: P
P. aeruginosa, VIM-1, isolate number 1, strains capable of hydrolysing cefotaxime
  results of the test: P
P. aeruginosa, VIM-2, isolate number 2, strains capable of hydrolysing cefotaxime
  results of the test: P
P. aeruginosa, VIM-4, isolate number 3, strains capable of hydrolysing cefotaxime
  results of the test: P
P. fluorescens, VIM-2, isolate number 1, strains capable of hydrolysing cefotaxime
  results of the test: P
P. putida, IMP-1, isolate number 1, strains capable of hydrolysing cefotaxime
  results of the test: P
P. putida, IMP-46, isolate number 1, strains capable of hydrolysing cefotaxime
  results of the test: P
P. putida, N/A, isolate number 1, strains not capable of hydrolysing cefotaxime
  results of the test: N
P. putida, VIM-2, isolate number 1, strains capable of hydrolysing cefotaxime
  results of the test: P
P. stutzeri, DIM-1, isolate number 1, strains capable of hydrolysing cefotaxime
  results of the test: P
P. stutzeri, IMP-1, isolate number 1, strains capable of hydrolysing cefotaxime
  results of the test: P
P. stutzeri, N/A, isolate number 1, strains not capable of hydrolysing cefotaxime
  results of the test: N
P. stutzeri, VIM-2, isolate number 1, strains capable of hydrolysing cefotaxime
  results of the test: P
S. enterica, CTX-M-15 + TEM-1 + OXA-1 + OXA-9 + OXA-10 + NDM-1, isolate number 1, strains capable of hydrolysing cefotaxime
  results of the test: P
S. marcescens, ESBL + SME-2, isolate number 1, strains capable of hydrolysing cefotaxime
  results of the test: P
S. marcescens, OXA-405, isolate number 1, strains capable of hydrolysing cefotaxime
  results of the test: P
S. marcescens, Overexpressed AmpC + Pénicillinase, isolate number 1, strains capable of hydrolysing cefotaxime
  results of the test: P
S. marcescens, SHV-12 + IMP-10, isolate number 1, strains capable of hydrolysing cefotaxime
  results of the test: P
S. marcescens, SME-1, isolate number 1, strains not capable of hydrolysing cefotaxime
  results of the test: N
S. marcescens, SME-4, isolate number 1, strains not capable of hydrolysing cefotaxime
  results of the test: N
S. marcescens, TEM-1 + KPC-2, isolate number 1, strains capable of hydrolysing cefotaxime
  results of the test: P
Salmonella spp., MCR-1, isolate number 1, strains not capable of hydrolysing cefotaxime
  results of the test: N
Salmonella spp., MCR-4, isolate number 1, strains not capable of hydrolysing cefotaxime
  results of the test: N
Salmonella spp., MCR-5, isolate number 1, strains not capable of hydrolysing cefotaxime
  results of the test: N
